# Measured values taken from paper PMC3556083.
# B1: GPX3 (protein, UniProt P23764 25-226)
# chain: QEKSKTDCHGGMSGTIYEYGALTIDGEEYIPFKQYAGKYILFVNVASYUGLTDQYLELNALQEELGPFGLVILGFPCNQFGKQEPGENSEILPSLKYVRPGGGFVPNFQLFEKGDVNGEKEQKFYTFLKNSCPPTAELLGSPGRLFWEPMKIHDIRWNFEKFLVGPDGIPIMRWYHRTTVSNVKMDILSYMRRQAALGARGK
# B2: RAB10 (protein, UniProt P35281 1-200)
# chain: MAKKTYDLLFKLLLIGDSGVGKTCVLFRFSDDAFNTTFISTIEIDFKIKTVELQGKKIKLQIWDTAGQERFHTITTSYYRGAMGIMLVYDITNGKSFENISKWLRNIDQHANEDVERMLLRNKCDMDHKRVVPKGKGEQIAREHRIRFFETSAKANINIEKAFLTLPEDILRKTPVKEPNSENVDISSGGGVTGWKSKCC
# B3: NDRG2 (protein, UniProt Q8VBU2 1-371)
# chain: MAELQEVQITEEKPLLPGQTPEAAKEAELAARILLDQGQTHSVETPYGSVTFTVYGTPKPKRPAIFTYHDVGLNYKSCFQPLFQFGDMQEIIQNFVRVHVDAPGMEEGAPVFPLGYQYPSQDQLADMIPCILQYLNFSTIIGVGVGAGAYILSRYALNHPDTVEGLVLINIDPNAKGWMDWAAHKLTGLTSSIPEMILGHLFSQEELSGNSELIQKYRSLITHAPNLENIELYWNSYNNRRDLNFERGGEMTLKCPVMLVVGDQAPHEDAVVECNSKLDPTQTSFLKMADSGGQPQLTQPGKLTEAFKYFVQGMGYMASSCMTRLSRSRTASLTSAASIDGSRSRSRTLSQSSESGTLPSGPPGHTMEVSC
# B4: RAB3GAP2 (protein, UniProt Q5U1Z0 1-1386)
# chain: MACSIVQFCSFQDLQSARDFLFPQLREETPGALRRDPSKTSNWEDDSWGAWEETEPQEPEEEGNTSKTQKHSWLQECVLSLSPTSDLMVIAREQKAAFLVRKWKHSDKGKEEMQFAVGWSGSVSAEEGEYVTSALCIPLASQKRSSTGRPDWTCIVVGFTSGYVRFYTEGVLLLAQLLNEDRVLQLKCRTYEIPRHPGVTEQNEELSILYPAAIVTIDGFSLFQSLRACRNQVAKAAASGNENIQPPPLAYKKWGLQDIDTIIDHASIGIMTLSPFDQMKTASNIGGFNAAIKNSPPAMSQYITVGSSPFTGFFYALEGSTQPLLSHVALAVASKLTSALFSAASGWLGWKSKHEEETVQKQKPKMEPATPLAVRFGLPDSRRHGESICLSPCNTLAAVTDDFGRVILLDVARGIAIRMWKGYRDAQIGWIQIVEDLHERVPEKGDFSPFGNTQGPSRVAQFLVIYAPRRGILEVWSTQQGPRVGAFNVGKHCRLLYPGYKIMGLNNVTSQSWQPQTYQICLVDPVSASVKAVNVPFHLALSDKKSERAKDLHLVKKLAALLRAKSPRPDSFEAEIKELILDIKYPATKKQALESILASDRVSFSCLRNVTQTSMDTLKNQELESVDEGLLQFCASKLKLLHLYESVSQLNTLDFHSDTPFSDNDLAVLLRLDDKELLKLRALLEKYKQENTKATVRFSEDADGVLPVKTFLEYLDYEKDALSIRKTSEEECVALGSFFFWKCLHGESSTEDMCHTLESAGLSPQQLLSLLLSVWLSKEKDILDKPQSVCCLHTMLSLLSKMKVAIDETWDSQSVSPWWQQMRMACIQSENNGAALLSAHVGHSVAAQMSSSATDKKFSQMVLDADAEALTDSWEALSLDTEYWKLLLRQLEDCLILQTLLHSRASPPAAKASSPQTEPLPRLSVKKLLEGGKGGIADSVAKWIFKQDLSPELLKCANREKDVENPDEPREGIARSPPEVSEVETDLGAVPDLLRLAYEQFPCSLELDVLHAHCCWEYVVQWNKDPEEARFLVRSIEHLRHILNPHVQNGISLMMWNTFLVKRFSAATYLMDKVGKSPKDRLCRRDVGMSDTALTSFLGSCLDLLQTSLEADISRDEVQVPVLDTEDAWLSVEGPTSIVELALEQKPIHYPLVEHHSILCSILYAAMSFSLKSVKPLALFDSKGKNAFFKDLTSIQLLPSGEMDPNFISVRQQFLLKVVSAAVQAQHSKDKDPSARAADTHGQDLNWTALAVDLAHHLQVSEDVIRRHYVGELYSYGADLLGEEAILQVQDKEVLASQLLVLTGQRLAHALFHTQTKEGMELLARLPPTLCTWLKAMNPQDLQNTGVPVAATAKLVHKVMELLPEKHGQYSLALHLIEAVEAMATL
# B5: PPP2R2A (protein, UniProt P36876 1-447)
# chain: MAGAGGGNDIQWCFSQVKGAVDDDVAEADIISTVEFNHSGELLATGDKGGRVVIFQQEQENKIQSHSRGEYNVYSTFQSHEPEFDYLKSLEIEEKINKIRWLPQKNAAQFLLSTNDKTIKLWKISERDKRPEGYNLKEEDGRYRDPTTVTTLRVPVFRPMDLMVEASPRRIFANAHTYHINSISINSDYETYLSADDLRINLWHLEITDRSFNIVDIKPANMEELTEVITAAEFHPNSCNTFVYSSSKGTIRLCDMRASALCDRHSKLFEEPEDPSNRSFFSEIISSISDVKFSHSGRYMMTRDYLSVKVWDLNMENRPVETYQVHEYLRSKLCSLYENDCIFDKFECCWNGSDSVVMTGSYNNFFRMFDRNTKRDITLEASRENNKPRTVLKPRKVCASGKRKKDEISVDSLDFNKKILHTAWHPKENIIAVATTNNLYIFQDKVN
# B6: ACO1 (protein, UniProt Q63270 1-889)
# chain: MKNPFAHLAEPLDPAQPGKKFFNLNKLEDSRYGRLPFSIRVLLEAAVRNCDEFLVKKNDIENILNWSIMQHKSIEVPFKPARVILQDFTGVPAVVDFAAMRDAVKKLGGNPEKINPVCPADLVIDHSIQVHFNRRADSLQKNQDLEFERNRERFEFLKWGSQAFCNMRIIPPGSGIIHQVNLEYLARVVFDQDGCYYPDSLVGTDSHTTMIDGLGVLGWGVGGIEAEAVMLGQPISMVLPQVIGYKLMGKPHPLVTSTDIVLTITKHLRQVGVVGKFVEFFGPGVAQLSIADRATIANMCPEYGATAAFFPVDDVSIAYLVQTGREEDKVKHIKRYLQAVGMFRDFSDSSQDPDFTQVVELDLKTVVPCCSGPKRPQDKVAVSEIEKDFESCLGAKQGFKGFQVAPDHHNDHKTFIYNDSEFTLAHGSVVIAAITSCTNTSNPSVMLGAGLLAKKAVEAGLNVKPYVKTSLSPGSGVVTYYLRESGVMPYLSQLGFDVVGYGCMTCIGNSGPLPEPVVEAITQGDLVAVGVLSGNRNFEGRVHPNTRANYLASPPLVIAYAIAGTVRIDFEKEPLGVNAQGQQVFLKDIWPTRDEIQEVERKYVIPGMFKEVYQKIETVNKSWNALAAPSEKLYAWNPKSTYIKSPPFFESLTLDLQPPKSIVDAYVLLNLGDSVTTDHISPAGNIARNSPAARYLTNRGLTPRDFNSYGSRRGNDAIMARGTFANIRLLNKFLNKQAPQTVHLPSGETLDVFDAAERYQQAGLPLIVLAGKEYGSGSSRDWAAKGPFLLGIKAVLAESYERTHCSNLVGMGVIPLEYLPGETADSLGLTGRERYTIHIPEHLKPRMKVQIKLDTGKTFQAVMRFDTDVELTYFHNGGILNYMIRKMAQ
# B7: RAB2A (protein, UniProt P05712 1-212)
# chain: MAYAYLFKYIIIGDTGVGKSCLLLQFTDKRFQPVHDLTMGVEFGARMITIDGKQIKLQIWDTAGQESFRSITRSYYRGAAGALLVYDITRRDTFNHLTTWLEDARQHSNSNMVIMLIGNKSDLESRREVKKEEGEAFAREHGLIFMETSAKTASNVEEAFINTAKEIYEKIQEGVFDINNEANGIKIGPQHAATNASHGGNQGGQQAGGGCC
# B8: COQ7 (protein, UniProt Q63619 1-217)
# chain: MSGAGAIAAASVGCLRTGVPRPFSAYGRGLIIRCHSTGMTLDNINRAAVDQIIRVDHAGEYGANRIYAGQMAVLGRTSVGPVIQKMWDQEKNHLKKFNELMVAFRVRPTVLMPLWNVAGFALGAGTALLGKEGAMACTVAVEESIAHHYNNQIRMLMEEDAEKYEELLQVIKQFRDEELEHHDTGLEHDAELAPAYTLLKRLIQAGCSAAIYLSERF
# B9: PGAM2 (protein, UniProt P16290 1-253)
# chain: MATHRLVMVRHGESSWNQENRFCGWFDAELSEKGAEEAKRGATAIKDAKIEFDICYTSVLKRAIRTLWTILDVTDQMWVPVVRTWRLNERHYGGLTGLNKAETAAKHGEEQVKIWRRSFDTPPPPMDEKHNYYASISKDRRYAGLKPEELPTCESLKDTIARALPFWNEEIAPKIKAGKRVLIAAHGNSLRGIVKHLEGMSDQAIMELNLPTGIPIVYELNQELKPTKPMRFLGDEETVRKAMEAVAAQGKAK
# B10: APRT (protein, UniProt P36972 1-180)
# chain: MSESELQLVARRIRSFPDFPIPGVLFRDISPLLKDPDSFRASIRLLAGHLKSTHGGKIDYIAGLDSRGFLFGPSLAQELGVGCVLIRKRGKLPGPTVSASYSLEYGKAELEIQKDALEPGQKVVIVDDLLATGGTMCAACELLSQLRAEVVECVSLVELTSLKGREKLGPVPFFSLLQYE
# B11: AKR7A2 (protein, UniProt Q8CG45 47-367)
# chain: GTVLGTMEMGRRMDASASAATVRAFLERGLNELDTAFMYCDGQSESILGSLGLGLGSGDCTVKIATKANPWDGKSLKPDSVRSQLETSLKRLQCPRVDLFYLHAPDHGTPIVETLQACQQLHQEGKFVELGLSNYASWEVAEIYTLCKSNGWILPTVYQGMYNATTRQVETELLPCLRYFGLRFYAYNPLAGGLLTGKYRYEDKDGKQPEGRFFGNSWSETYRNRFWKEHHFEAIALVEKALKTTYGTSAPSMTSAALRWMYHHSQLQGTRGDAVILGMSSLEQLEQNLAATEEGPLEPAVVEAFNQAWNVVAHECPNYFR
# B12: PFKM (protein, UniProt P47858 1-780)
# chain: MTHEEHHEAKTLGIGKAIAVLTSGGDAQGMNATVRAVVRVGIFTGLRVFFVHEGYQGLVDGGEHIREATWESVSMMLQLGGTVIGSARCKDFREREGRLRAAHNLVKRGITNLCVIGGDGSLTGADTFRSEWSDLLNDLQKDGKITAEERTKSSYLNIVFLVGSIDNDFCGTDMTIGTDSALHRIVEIVDAITTTAQSHQRTFVLEVMGRHCGYLALVTSLSCGADWVFIPECPPDDDWEEHLCRRLSETRTRGSRLNIIIVAEGAIDKNGKPITSEDIKNLVVKRLGYDTRVTVLGHVQRGGTPSAFDRILGSRMGVEAVMALLEGTPDTPACVVSLSGNTAVRLPLMECVQVTKDVTKAMDEKRFDEAIKLRGRSFMNNWEVYKLLAHVRPPVSKGGLHTVAVMNVGAPAAGMNAAVRSTVRIGLIQGNRVLVVHDGFEGLAKGQIEEAGWSYVGGWTGQGGSKLGTKRTLPKKNLEQISANITKYNIQGLVIIGGFEAYTGGLELMEGRKQFDELCIPFVVIPATVSNNVPGSDFSIGADTALNTICTTCDRIKQSAAGTKRRVFIIETMGGYCGYLATMAGLAAGADAAYIFEEPFTIRDLQVNVEHLVQKMKTTVKRGLVLRNEKCNENYTTDFIFNLYSEEGKGIFDSRKNVLGHMQQGGNPTPFDRNFATKMGAKATNWMSGKIKESYRNGRIFANTPDSGCVLGMRKRALVFQPVTELKDQTDFEHRIPKEQWWLKLRPILKILAKYEIDLDTSDHAHLEHISRKRSGEAAV
# Biological target: β2-adrenergic receptor (UniProt P07550)
# Experiment: affinity purification with mass spectrometry; purified Flag-β2AR in rHDL immobilised on M1 anti-Flag resin, occupied by 50 µM BI-167107 (full agonist) or 50 µM carazolol (inverse agonist); adult rat heart cytosol (10 mg/ml, 4 mM CaCl2) overnight at 4°C; eluted with FLAG peptide and EDTA; gel slices, LC-MS; proteins of the M1 resin, empty rHDL and Ni-NTA controls subtracted; hits of either or both samples; only the target purified
row,binding,Binder
1,binds,B1
2,binds,B2
3,binds,B3
4,binds,B4
5,binds,B5
6,binds,B6
7,binds,B7
8,binds,B8
9,binds,B9
10,binds,B10
11,binds,B11
12,binds,B12

# These are yes or no findings as the source states them, for the method shown. Binding seen in cells or lysates may run through a third protein. Here binding means that the protein was enriched with, or labelled near, the bait; the list need not be complete.
